For this assay, the target named is GST Tat fusion protein (HIV-1 (pNL4-3)) (UniProt P04610). Nature of the assay: pull-down; GST Tat or GST alone bound to GST beads, incubated with in vitro-translated Vif for 2 h at 4°C; Western blot with Vif-specific antiserum; only the target purified. A general note: Immunoblotting shows a protein as a band on a membrane.

The chains behind the UniProt entries cited, without tags or fusion partners.
UniProt P04610: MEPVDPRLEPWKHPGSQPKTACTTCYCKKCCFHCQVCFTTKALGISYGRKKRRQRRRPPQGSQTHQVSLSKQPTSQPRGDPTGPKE
UniProt P12504: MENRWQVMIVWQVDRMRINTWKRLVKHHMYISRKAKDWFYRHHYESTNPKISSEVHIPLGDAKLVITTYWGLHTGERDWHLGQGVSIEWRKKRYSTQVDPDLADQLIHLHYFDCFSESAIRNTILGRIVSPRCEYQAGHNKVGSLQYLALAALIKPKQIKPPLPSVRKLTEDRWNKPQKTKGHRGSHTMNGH

These are yes or no findings as the source states them, for the method shown. Binding seen in cells or lysates may run through a third protein. Some binding calls cover weakened binding; strength is not graded here.

With “In vitro-synthesized HIV-1 Vif protein (from UniProt P12504 1-192)”, the binding result is reported as “binds”.

(Values after PMC8978020.)
